From patent publication US20240182456A1, “2-((4-((S)-2-(4-CHLORO-2-FLUOROPHENYL)-2-METHYLBENZO[D][1,3]DIOXOL-4-YL)PIPERIDIN-1-YL)METHYL)-1-(((S)-OXETAN-2-YL)METHYL)-1H-IMIDAZOLE DERIVATIVES AS ACTIVATORS OF THE GLP1 RECEPTOR FOR THE TREATMENT OF OBESITY” (Novartis AG, priority 2021, published 2024)
pEC50: −log10 of the molar value. Structures were worked out from names or drawings and are uncertain.

By UniProt entry, the sequences of proteins in these tests, tags left out. Residues count along the entry.
UniProt P43220, 24-463 limits assumed: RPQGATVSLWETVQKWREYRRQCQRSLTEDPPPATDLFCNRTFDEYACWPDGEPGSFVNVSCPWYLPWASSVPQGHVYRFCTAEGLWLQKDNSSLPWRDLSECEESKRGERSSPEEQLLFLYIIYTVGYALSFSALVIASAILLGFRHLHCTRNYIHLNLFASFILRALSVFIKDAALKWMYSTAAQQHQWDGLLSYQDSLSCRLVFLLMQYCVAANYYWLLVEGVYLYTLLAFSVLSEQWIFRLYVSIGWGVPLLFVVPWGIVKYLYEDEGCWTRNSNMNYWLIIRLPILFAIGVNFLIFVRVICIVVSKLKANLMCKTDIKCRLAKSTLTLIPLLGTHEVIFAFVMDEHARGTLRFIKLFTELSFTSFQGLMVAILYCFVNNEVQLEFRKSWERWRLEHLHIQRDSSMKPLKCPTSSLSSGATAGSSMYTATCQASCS

Biological target: human GLP1R (hGLP1R) (Homo sapiens, UniProt P43220)
Assay: Human GLP1R cAMP agonist assay (GloSensor)
Assay type: cell-based
Conditions: HEK293-SNAP-hGLP1R-GloSensor cells; for pEC50: read-out: EC50 mean, intracellular cAMP, mean n=3 where SEM is given
Experimental: Compounds 1 to 31 were tested in the following cellular assays that measure the intracellular cAMP concentration, beta-arrestin recruitment and receptor internalization. The cAMP is generated by the activation of GLP1R. The cAMP data obtained is shown in Table 1 (where S.E.M. is included, mean n=3 independent experiments+/−S.E.M). Beta-arrestin is recruited upon activation of GLP1R and the data obtained are shown in Table 2 (mean n=2 independent experiments, +/−S.D). The extent to which the GLP1R is internalized into the cell and away from the plasma membrane following activation is also shown in Table 2 (mean n=2 independent experiments, +/−S.D). EC50 for each assay is defined as the concentration of the compound that leads to half of the maximum response (after baseline correction). Emax is defined as the maximum response observed for the test compound, normalized to the maximum response observed for the endogenous ligand (GLP1(7-36)) to GLP1R.
Human GLP1R cAMP Agonist Assay
The agonist activity of compounds was determined using the GloSensor™ cAMP Assay (Promega Corp.), which measures changes in the intracellular concentration of cAMP after ligand activation of GPCRs. The assay uses a biosensor encoded by pGloSensor™-22F cAMP plasmid (Promega, cat #E2301) with cAMP binding domains fused to a mutant form of Photinus pyralis luciferase. Binding to cAMP causes conformational changes that promote large increases in light output, which can be measured by a luminescence detector. […] Luminescence was then measured with an Envision 2104 Multilabel reader with “TRF Light Unit, 337 nm” (PerkinElmer) using the Ultra-Sensitive protocol setting “384-well US luminescence detector” with the 384-well luminescence aperture, 0.1 seconds per well. cAMP activity was calculated as percent of the GLP1 (7-36) EC100 control wells: [(sample signal−mean EC0 signal)/(mean EC100 of GLP1 (7-36) signal−mean EC0 signal)}*100. […] The EC50 value was represented by the AC50 value calculated from Helios in μM. Emax is the maximal activity detected within the concentration range, derived from the fitted curve. […]

`Cc1c(-c2cc(F)cc(C(=O)O)c2)nc(CN2CCC(c3cccc4c3O[C@@](C)(c3ccc(Cl)cc3F)O4)CC2)n1C[C@@H]1CCO1` showed an Emax mean (cAMP, normalized to GLP1(7-36) maximum response) of 109% and a pEC50 of 9.22.

`Cc1c(-c2ccc(C(=O)O)o2)nc(CN2CCC(c3cccc4c3O[C@@](C)(c3ccc(Cl)cc3F)O4)CC2)n1C[C@@H]1CCO1` showed a pEC50 of 9.75.
